These are yes or no findings as the source states them, for the method shown. Binding calls can cover weak binding; strength is not graded here.
Legend:
[1] = target: DEC-205 receptor of Gallus gallus (Gallus gallus); assay: immunoprecipitation from chicken spleen cell lysate, SDS-PAGE
[2] = target: DEC-205 receptor of Gallus gallus (Gallus gallus); assay: immunoprecipitation from lysate of LPS-stimulated chicken spleen white cells, SDS-PAGE

B1: murine monoclonal antibody 2F2E8E3B6 anti-CTLD-2 (antibody, IgG2a, V domains shown)
VH: EVQLQQSTAEFVKPGASVKLSCTASGFNIKDTYIHWVKQRPEQGLEWIGRIDPANGNTRYDPKFQGKATMTADTSSNTAYLQLSSLTSEDTAVYYCARYDVTYWGQGTLVTVS
VL: DIVMSQSPSSLAVSAGERVTMSCKSSQSLLNSRTRKNYLAWYQQKPGQSPKLLIYWASTRESGVPDRFTGSGSGTDFTLTISSVRAEDLAVYYCKQSYNLYTFGRGTKLEIK
notes: also called 2F2E8D3B6; AbM 2F2E8E3B6
binding [1]: binds
binding [2]: binds
